# Values quoted from earlier work in publication PMC6534257, “Leishmania infantum arginase: biochemical characterization and inhibition by naturally occurring phenolic substances” (Journal of Enzyme Inhibition and Medicinal Chemistry, 2019).
# Tested on: axenic amastigote forms of L. donovani
# Design: method as in PMID 16569852
# Conditions: L. donovani axenic amastigotes vs L9 cells ref 36; cited from earlier work
smiles,measurement,value
"COc1cc(-c2oc3cc(O)cc(O)c3c(=O)c2O)ccc1O [Isorhamnetin, isorhamnetin]",SI (parasite versus myoblast lineage cells L9),10.7
